Data on 15 molecules can be found in PubChem BioAssay AID248 (DTP/NCI, 2004).

The test concerns L1210 leukemia ip in BDF1 mice, survival T/C. As to the kind of experiment: NCI In Vivo Anticancer Drug Screen. Data for tumor model L1210 Leukemia (intraperitoneal) in B6D2F1 (BDF1) mice. Conditions: T/C endpoint: mean survival time, higher T/C = longer survival.
Where [1] appears, read: dose: 100.0 mg/kg/injection, schedule: Q01DX001 (ip), vehicle: saline.
[2] abbreviates: dose: 200.0 mg/kg/injection, schedule: Q01DX001 (ip), vehicle: saline.
The mark [3] stands for this setting: dose: 400.0 mg/kg/injection, schedule: Q01DX001 (ip), vehicle: saline.
Setting [4] is: dose: 200.0 mg/kg/injection, schedule: Q01DX009 (ip), vehicle: saline with Tween-80.

The list shows only some results of the screen, not a fair sample: it is rich in T/C values a quarter to a half above the control, in often repeated tests (any T/C) and in doses without a T/C. Further doses and runs are listed elsewhere. T/C gives the treated animals as a percentage of the vehicle group. Some entries give survivors of the animals treated and no T/C: the source holds a T/C of zero for them, seemingly a mark for toxic or unscored doses. Some doses without a T/C left all or most animals alive at the check, yet need not have been tolerated: the source hardly ever lists a survival T/C far under the control, and the zero likely stands for such cases as well. Survivors were counted at the toxicity check, usually on the fifth day, unless a day is given; later deaths do not show. Schedule codes are those of the source, taken here to give the interval after Q, in days (D) or hours (H), and the number of doses after X. Where survival is the endpoint, the PubChem record calls one and a half times the control and up active, and a quarter to a half above the control has no call in these data; cut-offs in other NCI protocols can differ. Some entries hold several experiments; the values are given in rising order. Marks such as (2×) give the number of equal values in this list.

For `CC(C)N(CCSC(=O)N1c2ccccc2Sc2cccnc21)C(C)C`, the survivor count runs as follows: (dose: 10.0 mg/kg/injection, schedule: Q04DX003 (ip), vehicle: Klucel (hydroxypropylcellulose) (HPC)) 3 of 6; (dose: 20.0 mg/kg/injection, schedule: Q04DX003 (ip), vehicle: Klucel (hydroxypropylcellulose) (HPC)) 1 of 6; (dose: 40.0 mg/kg/injection, schedule: Q04DX003 (ip), vehicle: Klucel (hydroxypropylcellulose) (HPC)) 0 of 6; (dose: 100.0 mg/kg/injection, schedule: Q04DX003 (ip), vehicle: Klucel (hydroxypropylcellulose) (HPC)) 0 of 6; (dose: 200.0 mg/kg/injection, schedule: Q04DX003 (ip), vehicle: Klucel (hydroxypropylcellulose) (HPC)) 0 of 6; (dose: 400.0 mg/kg/injection, schedule: Q04DX003 (ip), vehicle: Klucel (hydroxypropylcellulose) (HPC)) 0 of 6.
For `CCCCCCCCCCCCCC[N+]1(C)CCS(=O)CC1` (stereo not drawn), the survivor count runs as follows: under setting [1], 3 of 6; under setting [2], 0 of 6; under setting [3], 0 of 6.
Regarding `ONc1ccc(Cl)cc1`, the survivor count by setting is: (dose: 25.0 mg/kg/injection, schedule: Q01DX009 (ip), vehicle: gum acacia) 6 of 6; (dose: 50.0 mg/kg/injection, schedule: Q04DX003 (ip), vehicle: gum acacia) 0 of 6; (dose: 100.0 mg/kg/injection, schedule: Q01DX001 (ip), vehicle: gum acacia) 0 of 6; (dose: 200.0 mg/kg/injection, schedule: Q01DX001 (ip), vehicle: gum acacia) 0 of 6; (dose: 400.0 mg/kg/injection, schedule: Q01DX001 (ip), vehicle: gum acacia) 0 of 6.
Take `OC(COc1ccc(Cl)cc1)COc1ccc(Cl)cc1`: the survivor count is given as 3 of 3 (dose: 200.0 mg/kg/injection, schedule: Q01DX001 (ip), vehicle: saline with Tween-80) and 3 of 3 (dose: 400.0 mg/kg/injection, schedule: Q01DX001 (ip), vehicle: saline with Tween-80).
Take `CCCC1(CCC)CN(CO)C1=O`: the survivor count (dose: 400.0 mg/kg/injection, schedule: Q01DX009 (ip), vehicle: saline) is 5 of 6.
Turning to `OCCCCCCCCCCCC[n+]1ccc(Cc2ccccc2)cc1`, the survivor count reads like this: (dose: 75.0 mg/kg/injection, schedule: Q01DX001 (ip), vehicle: Klucel (hydroxypropylcellulose) (HPC)) 2 of 6; (dose: 150.0 mg/kg/injection, schedule: Q01DX001 (ip), vehicle: Klucel (hydroxypropylcellulose) (HPC)) 0 of 6; (dose: 300.0 mg/kg/injection, schedule: Q01DX001 (ip), vehicle: Klucel (hydroxypropylcellulose) (HPC)) 0 of 6.
As to `O=C(COc1ccc(Cl)cc1Cl)Nc1ccccc1F`, the survivor count under setting [4] was 6 of 6.
With `OCN(CO)c1ccc2c(c1)Cc1cc(F)ccc1-2`, the survivor count (dose: 400.0 mg/kg/injection, schedule: Q04DX003 (ip), vehicle: acetone) is 1 of 6.
Take `CN1CCC(C=C2c3ccccc3CCc3ccccc32)C1` (stereo not drawn): the survivor count (dose: 50.0 mg/kg/injection, schedule: Q01DX009 (ip), vehicle: saline) is 6 of 6.
`O=C(NC(=S)Nc1ccc2ccccc2c1)c1ccc(Cl)cc1Cl`: the T/C is 94, 100 (2×), 105 % of control (dose: 100.0 mg/kg/injection, schedule: Q01DX009 (ip), vehicle: saline with Tween-80); 89, 93, 97 % of control under setting [4]; 86, 94, 103, 110 % of control (dose: 400.0 mg/kg/injection, schedule: Q01DX009 (ip), vehicle: saline with Tween-80). For the same molecule, the survivor count under setting [4] is 6 of 6.
Take `Cc1ccc(S(=O)(=O)OCCN(CCOS(=O)(=O)c2ccc(C)cc2)c2ccccc2)cc1`: the T/C (dose: 15.0 mg/kg/injection, schedule: Q01DX015 (ip), vehicle: carboxymethylcellulose (CMC)) is 125 % of control; the T/C (dose: 30.0 mg/kg/injection, schedule: Q01DX015 (ip), vehicle: carboxymethylcellulose (CMC)) was 127 % of control; the T/C (dose: 120.0 mg/kg/injection, schedule: Q01DX015 (ip), vehicle: carboxymethylcellulose (CMC)) was 143 % of control; the T/C under setting [2] is 129 % of control; the T/C (dose: 240.0 mg/kg/injection, schedule: Q01DX015 (ip), vehicle: carboxymethylcellulose (CMC)) is 136 % of control; the T/C under setting [3] is 127 % of control.
In the case of `CC(Cc1ccc(O)c(O)c1)C(C)Cc1ccc(O)c(O)c1` (stereo not drawn), the survivor count is reported as 3 of 6 (dose: 600.0 mg/kg/injection, schedule: Q01DX009 (ip), vehicle: saline) and 4 of 6 (dose: 800.0 mg/kg/injection, schedule: Q01DX009 (ip), vehicle: saline).
With `C=CCSc1ccccc1C`, the survivor count under setting [3] was 2 of 6.
On to `N=c1ncn(C2OC(CO[P+](N)(O)O)C(O)C2O)c2nc[nH]c12` (stereo not drawn), for which the survivor count is reported as 5 of 6 (dose: 50.0 mg/kg/injection, schedule: Q01DX005 (ip), vehicle: water); 0 of 6 (dose: 100.0 mg/kg/injection, schedule: Q01DX005 (ip), vehicle: water); 0 of 6 (dose: 200.0 mg/kg/injection, schedule: Q01DX005 (ip), vehicle: water).
With `S=C(N/N=C/c1ccc(Cl)cc1Cl)Nc1cccc2cccnc12`, the survivor count is reported as 4 of 4 (dose: 50.0 mg/kg/injection, schedule: Q01DX001 (ip), vehicle: saline); 4 of 4 under setting [1]; 4 of 4 under setting [2]; 4 of 4 under setting [3].
